Experimental data reported in article PMC8805557.
Results are given in words; binding and its absence hold for the method and conditions named. In cells and extracts the contact can be indirect. For some assays here: A result given as binding can be weak or reduced; the word gives no strength. Tags and fused reporters may be left off the sequences shown. Each block holds one binder with its values, some of them ahead of it.

How the values were obtained:
[1] = biological target: HA-ZFP961 (full-length ZFP961, ZFP961-WT) (mouse); experiment: co-IP; HA-ZFP961 (or HA vector) co-transfected with the Flag-tagged partner; extracts made after 48 h in 100 mM NaCl, 50 mM Tris pH 7.5, 0.5% Triton X-100, 5% glycerol; incubated 2 h with anti-HA agarose beads; washed in 100 mM NaCl, 50 mM Tris pH 7.5, 0.1% NP-40, 3% glycerol; Western blot
[2] = biological target: HA-ZFP961 (full-length ZFP961, ZFP961-WT) (mouse); experiment: co-IP; as a1, with the PPARα agonist GW7647 (1 × 10^−6 M) present
[3] = biological target: HA-ZFP961-Mut (KRAB domain deletion mutant of ZFP961) (mouse); experiment: co-IP; HA-ZFP961 (or HA vector) co-transfected with the Flag-tagged partner; extracts made after 48 h in 100 mM NaCl, 50 mM Tris pH 7.5, 0.5% Triton X-100, 5% glycerol; incubated 2 h with anti-HA agarose beads; washed in 100 mM NaCl, 50 mM Tris pH 7.5, 0.1% NP-40, 3% glycerol; Western blot

binding [1]: no binding
B1: Flag-Hlx (protein, UniProt Q61670 1-476)
chain: MFAAGLAPFYASNFSLWSAAYCSSAGPGGCSFALDPAAVKKPSFCIADILHAGVGEPGPAAEGLVGASAALTAHLGSVHPHASFQAAARSPLRPTPVVAPSEVPAGFPQRLSPLSAAFHQHLPQQSPTQQQQPQQQPPPPPRAVSLQPPTSGTRVVPHHSGSAPAPSSKDLKFGIDRILSAEFDPKVKEGNTLRDLTSLLTGGRPAGVHLAGLQPSAGQFFASLDPISEASAILSPLSSNPRNSVQHQFQDTFPGPYAVLTKDTMPQTYKRKRSWSRAVFSNLQRKGLEKRFEIQKYVTKPDRKQLAAMLGLTDAQVKVWFQNRRMKWRHSKEAQAQKDKDKEAGEKPSGGVPAEGEREERSPSRSEGEAESESSDSESLDMAPSDTERTEGTERSLHQTTVIKASAAGALITASSSTSGSSFSFSSTSSLGSGNTHVGSASSLGGNCSELPSAHQPSVTSSPQSPEIAQAPLAGL

binding [1]: binds | binding [3]: binds
B2: Flag-PPARα (protein, UniProt P23204 1-468)
chain: MVDTESPICPLSPLEADDLESPLSEEFLQEMGNIQEISQSIGEESSGSFGFADYQYLGSCPGSEGSVITDTLSPASSPSSVSCPVIPASTDESPGSALNIECRICGDKASGYHYGVHACEGCKGFFRRTIRLKLVYDKCDRSCKIQKKNRNKCQYCRFHKCLSVGMSHNAIRFGRMPRSEKAKLKAEILTCEHDLKDSETADLKSLGKRIHEAYLKNFNMNKVKARVILAGKTSNNPPFVIHDMETLCMAEKTLVAKMVANGVEDKEAEVRFFHCCQCMSVETVTELTEFAKAIPGFANLDLNDQVTLLKYGVYEAIFTMLSSLMNKDGMLIAYGNGFITREFLKNLRKPFCDIMEPKFDFAMKFNALELDDSDISLFVAAIICCGDRPGLLNIGYIEKLQEGIVHVLKLHLQSNHPDDTFLFPKLLQKMVDLRQLVTEHAQLVQVIKKTESDAALHPLLQEIYRDMY
binding [2]: no binding (only with GW7647 (1 × 10^−6 M))

binding [1]: no binding
B3: Flag-PGC-1α (protein, UniProt O70343 1-797)
chain: MAWDMCSQDSVWSDIECAALVGEDQPLCPDLPELDLSELDVNDLDTDSFLGGLKWCSDQSEIISNQYNNEPANIFEKIDEENEANLLAVLTETLDSLPVDEDGLPSFDALTDGAVTTDNEASPSSMPDGTPPPQEAEEPSLLKKLLLAPANTQLSYNECSGLSTQNHAANHTHRIRTNPAIVKTENSWSNKAKSICQQQKPQRRPCSELLKYLTTNDDPPHTKPTENRNSSRDKCASKKKSHTQPQSQHAQAKPTTLSLPLTPESPNDPKGSPFENKTIERTLSVELSGTAGLTPPTTPPHKANQDNPFKASPKLKPSCKTVVPPPTKRARYSECSGTQGSHSTKKGPEQSELYAQLSKSSGLSRGHEERKTKRPSLRLFGDHDYCQSLNSKTDILINISQELQDSRQLDFKDASCDWQGHICSSTDSGQCYLRETLEASKQVSPCSTRKQLQDQEIRAELNKHFGHPCQAVFDDKSDKTSELRDGDFSNEQFSKLPVFINSGLAMDGLFDDSEDESDKLSYPWDGTQPYSLFDVSPSCSSFNSPCRDSVSPPKSLFSQRPQRMRSRSRSFSRHRSCSRSPYSRSRSRSPGSRSSSRSCYYYESSHYRHRTHRNSPLYVRSRSRSPYSRRPRYDSYEAYEHERLKRDEYRKEHEKRESERAKQRERQKQKAIEERRVIYVGKIRPDTTRTELRDRFEVFGEIEECTVNLRDDGDSYGFITYRYTCDAFAALENGYTLRRSNETDFELYFCGRKQFFKSNYADLDTNSDDFDPASTKSKYDSLDFDSLLKEAQRSLRR
